# Results from PubChem BioAssay AID540303 (National Center for Advancing Translational Sciences (NCATS), 2011).
# Hit rate of the full screen: of about 330,000 compounds, about 1,000 (0.3%) were called active. The shares of active, inactive and inconclusive entries below differ from those in the screen. Calls come from the whole dose curve; as a rule, active = well fitted inhibition curve with a large enough effect; inconclusive = small, poorly fitted or top-dose-only effect; inactive = no such curve, though single readings can be large or run the other way; tested in mouse RAW 264.7 cells. Where the call is inconclusive, the potency comes from a doubtful curve fit.
# Test: qHTS for Inhibitors of Cell Surface uPA Generation; note: nearly all actives have a fitted effect of over 55% in size
# Details: cell surface uPA generation assay; series mostly up to 38.3 µM; activity change, negative = inhibition: at the top concentration
# Procedure, shortened: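 RAW 264.7, 4000 cells/well, o/n 37 C; cpd 1:5 dilution, up to 38.3 uM final; 24 h 37 C/5% CO2 with reagent; ATP-Lite lum. High ATP = LF entry blocked.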
# % is set by controls: 0 for no effect and ±100 for the full control effect; potency is the fitted concentration of half-maximal effect.
Structure (SMILES),Potency,"activity change, negative = inhibition"
COc1cccc(C2c3[nH]c4ccccc4c3C[C@H]3C(=O)N(C4CCN(Cc5ccccc5)CC4)CC(=O)N23)c1 (some centres not stated),"inconclusive: 12.6 µM [inhibitor, single point]",–
CN1CCN(S(=O)(=O)c2cccc(C(=O)Nc3cc(C(F)(F)F)ccc3N3CCCC3)c2)CC1,"inconclusive: 8.91 µM [inhibitor, single point]",–
COC(=O)CN1C(=O)[C@H]2[C@@H](/C=C/c3ccccc3)N3C(=O)CN(Cc4ccc(-c5ccccc5)cc4)C(=O)[C@@]3(C)[C@H]2C1=O,–,inactive: 5.07%
COc1ccc(CNc2ccc(C)c(C)c2)c(OC)c1OC,"inconclusive: 7.94 µM [inhibitor, single point]",–
Cc1ccc2cc(NC(=O)c3cccc(F)c3)ccc2n1,"inconclusive: 7.94 µM [inhibitor, single point]",–
C=CCOc1ccc(CN(C)C(=O)CNC(=O)c2ccc(-c3ccccc3)cc2)cc1,"inconclusive: 4.47 µM [inhibitor, partial curve, poor fit]",–
C=C1C(=O)O[C@H]2C[C@]3(C)C([C@@H](OC(=O)/C(C)=C/C)[C@H]12)[C@](C)(O)CC[C@H]3O (some centres not stated),"inconclusive: 8.91 µM [inhibitor, partial curve]",–
CN(C)S(=O)(=O)c1cccc(C(=O)Nc2cc3c(cc2C(=O)O)OCCCO3)c1,"inconclusive: 3.16 µM [inhibitor, partial curve]",–
COc1cccc(C=O)c1OCCCOc1cccc2cccnc12,"inconclusive: 10 µM [inhibitor, partial curve, poor fit]",–
CCc1ccc(OCc2nc(-c3ccccn3)no2)c(Br)c1,"inconclusive: 5.62 µM [inhibitor, partial curve]",–
Oc1ccc(Nc2nc(-c3ccccc3F)nc3ccccc23)cc1,"inconclusive: 1.78 µM [inhibitor, partial curve]",–
Cc1ccc(NC(=S)N(CCN2CCOCC2)Cc2ccccc2F)cc1Cl,–,inactive: 4.86%
CCOC(=O)c1[nH]c2ccc(OC)cc2c1NC(=O)c1ccc2c(c1)OCO2,–,inactive: 2.06%
O=C(/C=C/c1ccc2c(c1)OCO2)Nc1cccnc1,"inconclusive: 12.6 µM [inhibitor, partial curve, poor fit]",–
O=C(NCc1ccccc1)c1cccc(NC(=O)c2ccccc2)c1,"inconclusive: 10 µM [inhibitor, single point]",–
Cc1[nH]nc2nc(SCC(=O)NCC3CCCO3)n(-c3ccc(Br)cc3)c(=N)c12 (configuration not stated),–,inactive: -5.44%
COc1ccc(OC)c(/C=C/C(=O)c2ccc3c(c2)OCCO3)c1,"inconclusive: 14.1 µM [inhibitor, partial curve, poor fit]",–

# Looked up above.
# `COc1ccc(OC)c(/C=C/C(=O)c2ccc3c(c2)OCCO3)c1` | Potency: inconclusive: 14.1 µM [inhibitor, partial curve, poor fit]
# `CCOC(=O)c1[nH]c2ccc(OC)cc2c1NC(=O)c1ccc2c(c1)OCO2` | activity change, negative = inhibition: inactive: 2.06%
